{
  "source": "patent US11878003B2",
  "about": "“Composition comprising organoselenium compound for treatment of skeletal muscle atrophy” (Gwangju Institute of Science and Technology, priority 2021, dated 2024)",
  "key": {"C2C12 myotubes": {"system": "C2C12 myotubes", "test": "MTT assay and microscopy, myotube viability", "assay_type": "cell-based, mouse", "experimental": "Then, the myoblasts were treated with a differentiation medium (DMEM supplemented with 2% horse serum and PenStrep) for 72 hours so that the myoblasts were induced to differentiate into myotubes.\nCell proliferation was evaluated through MTT (3-(4,5-dimethylthiazol-2-yl)-2,5-diphenyltetrazolium bromide) assay as described above. Myoblasts were seeded 3 times into 96-well plates at a density of 2×10^3 cells per well. A compound to be tested was added, followed by 48 hours of incubation, the medium was changed to an MTT solution (0.5 mg/mL, final concentration), and the plate was incubated in an incubator at 37° C., 5%, CO2 conditions. After 60 minutes of incubation, 50 μL of DMSO was added. Optical density in each well was measured at 570 nm using a microplate reader (VersaMax, Molecular Devices, USA). For myotube analysis, myoblasts were differentiated for […], the medium was supplemented with the compound of interest, 48 hours of incubation was additionally performed, and the cultures were assayed."}, "IMPase": {"system": "IMPase", "test": "IMPase activity assay in myotubes (myo-inositol assay kit)", "assay_type": "cell-based, mouse", "conditions": "10 μM dexamethasone", "experimental": "IMPase activity in cells and tissues was measured using a myo-inositol assay kit (Megazyme, Ireland) according to the manufacturer's instructions. The cell […] was sonicated in PBS for 90 seconds with a 30-second on and 15-second off cycle (Vibra-Cell, USA) as described above, and then centrifuged at 13,000×g for 15 minutes as described above. Thus, the supernatant was prepared."}, "human skeletal myoblasts": {"system": "human skeletal myoblasts", "test": "Dexamethasone atrophy in human skeletal myotubes", "assay_type": "cell-based", "conditions": "24 hours", "experimental": "Human skeletal myoblasts were purchased from Thermo-Fisher Scientific. Myoblasts were thawed in a water bath, washed with […], and centrifuged at 180 g for 5 minutes at room temperature. Next, myoblasts were resuspended in DM and seeded in a 12-well plate at a density of 4.8×10^4 cells/well. After 72 hours, the myoblasts were treated with a compound for 24 hours. The myotube diameter was measured by optical microscopy analysis of DIC captured images (Olympus CKX41)."}, "[1]": {"system": "Atrogin-1, MuRF-1, FoxO3a expression", "test": "qPCR of atrophy genes in dexamethasone-treated myotubes", "assay_type": "cell-based, mouse", "experimental": "C2C12 myoblasts were seeded onto 6-well plates in a growth medium (GM). After reaching confluence, the cultures were treated with DM for 72 hours, and myotube atrophy was induced with DM containing 10 μM dexamethasone for 24 hours in the presence or absence of the drug of interest. Myotubes were visualized using hematoxylin and eosin staining according to a previously published protocol, and imaged with an optical microscope (Olympus CKX41, Japan). A myotube distribution was calculated by dividing the number of myotubes in each group by the total number of myotubes per image.\nThe transcription level of the gene was measured using a StepOnePlus Real Time PCR System (manufactured by Applied Biosystems, UK). cDNA was reverse transcribed from total RNA using an AccuPower RT PreMix (manufactured by Bioneer, USA). Real-time PCR was performed by modifying the manufacturer's instructions as follows.\nPCR was performed three times using a total of 20 μL of 2×Power SYBR Green PCR Master Mix containing 200 nM of specific primers and 1 μL of cDNA. […] Extension and fluorescence detection were performed at 72° C. after each cycle. After the final cycle, melting point analysis was performed using continuous fluorescence detection on samples at a temperature in a range of 60° C. to 95° C. […] Expression levels of GAPDH were used for normalization and expression levels of all other genes were calculated."}, "C57BL/6J mice": {"system": "C57BL/6J mice", "test": "Skeletal muscle atrophy dexamethasone model", "assay_type": "in vivo, mouse", "experimental": "13-week-old male C57BL/6J mice were treated with drugs as follows: • 1) Injection of vehicle (4% hydroxypropyl-β-cyclodextrin) alone; • 2) 15 mg/kg of dexamethasone dissolved in vehicle; • 3) 15 mg/kg of dexamethasone and 1 mg/kg of ebselen; and • 4) Injection of 15 mg/kg dexamethasone and 3 mg/kg ebselen (n=5 per group).\nThe muscle condition was evaluated after intraperitoneal injection daily for 14 days with the same drug as above.\nA grip strength of each mouse was recorded using a BIO-GS3 (Bioseb, USA). To measure the grip strength, mice were placed on a metal grid to grip the metal grid with four paws and were gently pulled back until the mice were unable to continue holding the grid. Muscle strength was expressed using the maximum value obtained from three trials at 1-minute intervals.\nMice were placed in the center of a grid, and it was made sure that the grid was gripped by the limbs of the mice. Next, the grid was turned over and hung at a height of 50 cm above a baseline, and the hanging time was measured up to 10 minutes.\nIn the case of the dexamethasone-induced atrophy model, the quadriceps, gastrocnemius and splenic muscles were dissected and weighed. The quadriceps were stained with H&E according to the same protocol used for the glycerol test and used for histological analysis."}},
  "note": "For at least one compound, name, drawing or mass did not settle the structure. Some of these results come from one statement about several compounds together.",
  "data": [
    {"smiles": "CC(Oc1ccc(O)cc1)(P(=O)(O)O)P(=O)(O)O", "note": "[L-690,330, [1-(4-hydroxyphenoxy)-1-phosphonoethyl]phosphonic acid]", "values": [
      {"measurement": "concentration at which cytotoxicity was not observed", "setting": "C2C12 myotubes", "value": "up to 50 μM"}
    ]},
    {"smiles": "[Cl-].[Li+]", "note": "[LiCl]", "values": [
      {"measurement": "concentration without cytotoxicity / effect on cell viability", "setting": "C2C12 myotubes; 48 hours", "value": "up to 50 mM"}
    ]},
    {"smiles": "C[C@@H]1C[C@H]2[C@@H]3CCC4=CC(=O)C=C[C@]4(C)[C@@]3(F)[C@@H](O)C[C@]2(C)[C@@]1(O)C(=O)CO", "note": "[dexamethasone, Dexamethasone]", "values": [
      {"measurement": "IMPase activity", "setting": "IMPase", "value": "significantly increased"},
      {"measurement": "myotube diameter and proportion of large diameter myotubes", "setting": "human skeletal myoblasts", "value": "reduced"},
      {"measurement": "Atrogin-1 and FoxO3a expression", "setting": "[1]; 10 μM dexamethasone 24 hours", "value": "up-regulates"},
      {"measurement": "expression of atrogin-1, MuRF-1 and FoxO3a", "setting": "[1]; 10 μM dexamethasone, 100 mM myo-inositol", "value": "increased"},
      {"measurement": "quadriceps mass", "setting": "C57BL/6J mice; 15 mg/kg dexamethasone, 1 or 3 mg/kg ebselen, i.p. daily 14 days", "value": "significant decrease"},
      {"measurement": "IMPase activity", "setting": "C57BL/6J mice; quadriceps", "value": "increased"}
    ]},
    {"smiles": "O=c1c2ccccc2[se]n1-c1ccccc1", "note": "[ebselen]", "values": [
      {"measurement": "concentration at which cytotoxicity was not observed", "setting": "C2C12 myotubes", "value": "up to 50 μM"}
    ]}
  ]
}
